Measurements reported in PubChem BioAssay AID686938 (Drosophila RNAi Screening Center, 2013).
In all, the deposit lists about 23,000 reagents; below is a random part of those that have a named target and a result. Of all reagents, 75 (0.33%) were called active. 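Raw plate signals without normalisation; calls rest on plate z-scores that were not deposited; ratio present for only 364 wells.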 Entries without a mark were called inactive. Reagents against one gene are numbered here. The record does not give: the dose of the treatment.

- Purpose: 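Looking for CRAC channel components and the factors controlling them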 (primary screen)
- Cell system: Drosophila S2R+ cells
- Reagents: long dsRNA against Drosophila genes, about 0.25 µg dsRNA per well, roughly 10,000 cells
- Time to read-out: 5 days of knock-down before the calcium assay
- Challenge: thapsigargin (SERCA pump blocker) to empty calcium stores; entry signal taken 4 min after adding it
- Detection: 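Per-well fluo-4 fluorescence in two replicates, unnormalised, measured in resting cells and 4 min after store depletion by the SERCA blocker thapsigargin; ratio of the two present in few wells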
- Reading the numbers: calcium entry signal: higher = stronger calcium signal after store depletion; entry to resting ratio: higher = more calcium entry relative to resting level; resting calcium signal: higher = higher resting calcium signal
- Hit rule: 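Called when the plate z-score of the entry-to-rest ratio, mean of duplicates, falls below −3; wells with low overall dye signal (Fmax z below −2) or more than five off-targets excluded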
- Calls: active = strongly reduced calcium entry; inactive = no strong reduction

target gene | dsRNA no. | calcium entry signal, replicate 1 (fluorescence units) | calcium entry signal, replicate 2 (fluorescence units) | entry to resting ratio | resting calcium signal, replicate 1 (fluorescence units) | resting calcium signal, replicate 2 (fluorescence units)
CheA29a (Chemosensory protein A 29a) | 1 | 2.30e7 | 3.56e7 | – | 1.22e7 | 1.56e7
CG7888 | 1 | 4.33e7 | 3.10e7 | – | 2.80e7 | 1.30e7
CG32189 | 1 | 3.64e7 | 3.72e7 | – | 1.64e7 | 1.95e7
CG7720 | 1 | 1.88e7 | 2.15e7 | – | 9.59e6 | 1.01e7
CG7720 | 2 | 4.43e7 | 2.93e7 | – | 2.51e7 | 1.51e7
bic (bicaudal) | 1 | 2.41e7 | 3.30e7 | – | 1.34e7 | 1.89e7
l(3)mbt (lethal (3) malignant brain tumor) | 1 | 3.14e7 | 4.38e7 | – | 1.47e7 | 1.90e7
CG30002 | 1 | 3.45e7 | 4.83e7 | – | 1.67e7 | 2.20e7
GC (gamma-glutamyl carboxylase) | 1 | 3.72e7 | 5.33e7 | – | 1.85e7 | 2.28e7
Usp20-33 (Ubiquitin specific protease 20/33) | 1 | 4.16e7 | 4.45e7 | – | 1.79e7 | 2.01e7
Acp29AB (Accessory gland protein 29AB) | 1 | 3.36e7 | 3.89e7 | – | 1.72e7 | 1.92e7
CG32772 | 1 | 3.19e7 | 3.22e7 | – | 1.71e7 | 1.87e7
CG32772 | 2 | 2.53e7 | 2.16e7 | – | 1.15e7 | 1.03e7
CG32772 | 3 | 3.25e7 | 4.77e7 | – | 1.67e7 | 2.31e7
CG10171 | 1 | 5.72e7 | 3.57e7 | – | 3.25e7 | 1.49e7
JTBR | 1 | 4.45e7 | 4.03e7 | – | 2.14e7 | 1.96e7
mRpS5 (mitochondrial ribosomal protein S5) | 1 | 4.31e7 | 3.60e7 | – | 2.23e7 | 1.55e7
Naprt (Nicotinate phosphoribosyltransferase) | 1 | 4.83e7 | – | – | 2.85e7 | –
GstE4 (Glutathione S transferase E4) | 1 | 6.75e7 | 6.50e7 | – | 2.72e7 | 2.94e7
Cngl (Cyclic nucleotide-gated ion channel-like) | 1 | 1.79e7 | 2.34e7 | – | 8.91e6 | 9.84e6
Cngl (Cyclic nucleotide-gated ion channel-like) | 2 | 2.55e7 | 3.00e7 | – | 1.33e7 | 1.51e7
Cngl (Cyclic nucleotide-gated ion channel-like) | 3 | 1.77e7 | 2.31e7 | – | 1.14e7 | 1.18e7
ICA69 (Islet cell autoantigen 69 kDa) | 1 | 3.95e7 | 4.42e7 | – | 1.77e7 | 2.98e7
HP1D3csd (Heterochromatin Protein 1D3 chromoshadow domain) | 1 | 5.55e7 | 4.49e7 | – | 2.39e7 | 1.99e7
Cyp313b1 (Cytochrome P450 313b1) | 1 | 4.44e7 | 3.52e7 | – | 2.15e7 | 1.75e7
CG31371 | 1 | 3.74e7 | 4.77e7 | – | 1.97e7 | 1.92e7
Mct1 (Monocarboxylate transporter 1) | 1 | 3.86e7 | 6.68e7 | 1.9 | 2.04e7 | 2.50e7
CG6432 | 1 | 4.40e7 | 2.96e7 | – | 2.05e7 | 1.38e7
CG13217 | 1 | 1.51e7 | 3.26e7 | – | 8.57e6 | 1.41e7
cype (cyclope) | 1 | 4.27e7 | 4.25e7 | – | 2.05e7 | 1.94e7
ND-24L (NADH dehydrogenase (ubiquinone) 24 kDa subunit-like) | 1 | 2.65e7 | 4.92e7 | – | 1.39e7 | 1.88e7
CG15256 | 1 | 2.86e7 | 4.10e7 | – | 1.57e7 | 1.92e7
CG15256 | 2 | 4.70e7 | 3.22e7 | – | 2.03e7 | 1.51e7
CG1172 | 1 | 3.26e7 | 2.85e7 | – | 1.59e7 | 1.41e7
CG1172 | 2 | 3.49e7 | 3.67e7 | – | 1.72e7 | 2.09e7
CG5808 | 1 | 2.95e7 | 2.76e7 | – | 1.47e7 | 1.37e7
CG15142 | 1 | 5.15e7 | 3.27e7 | – | 2.19e7 | 1.74e7
Ugt303A1 (UDP-glycosyltransferase family 303 member A1) | 1 | 2.06e7 | 2.20e7 | – | 1.02e7 | 1.15e7
CG16820 | 1 | 4.23e7 | – | – | 2.19e7 | –
CG14985 | 1 | 5.21e7 | 4.66e7 | – | 2.63e7 | 2.15e7
CG14985 | 2 | 3.90e7 | 4.59e7 | – | 1.86e7 | 2.06e7
chp (chaoptin) | 1 | 2.72e7 | 3.21e7 | – | 1.15e7 | 1.51e7
Ddrgk1 (DDRGK domain containing 1) | 1 | 4.83e7 | 4.07e7 | – | 2.27e7 | 1.71e7
CG1774 | 1 | 3.69e7 | 3.84e7 | – | 1.61e7 | 1.90e7
CG13711 | 1 | 2.92e7 | 5.34e7 | – | 1.47e7 | 2.15e7
mey (morpheyus) | 1 | 4.27e7 | 4.94e7 | – | 1.82e7 | 2.09e7
CG30431 | 1 | 3.80e7 | – | – | 1.87e7 | –
CG30431 | 2 | 4.48e7 | 4.51e7 | – | 2.12e7 | 2.24e7
dyw (daywake) | 1 | 3.53e7 | 4.53e7 | 2.1 | 1.65e7 | 1.88e7
CG7203 | 1 | 2.63e7 | 3.22e7 | – | 1.11e7 | 1.49e7
CG3500 | 1 | 3.41e7 | 3.90e7 | – | 1.80e7 | 1.85e7
Gart (GART trifunctional enzyme) | 1 | 3.32e7 | 4.05e7 | – | 1.64e7 | 1.92e7
CG5819 | 1 | 4.75e7 | 4.95e7 | – | 2.21e7 | 2.27e7
CG6769 | 1 | 4.29e7 | 5.42e7 | – | 1.98e7 | 2.27e7
Pgant9 (Polypeptide N-Acetylgalactosaminyltransferase 9) | 1 | 2.54e7 | 6.19e7 | – | 1.28e7 | 2.56e7
Pgant9 (Polypeptide N-Acetylgalactosaminyltransferase 9) | 2 | 4.36e7 | 5.66e7 | – | 2.03e7 | 3.02e7
Pgant9 (Polypeptide N-Acetylgalactosaminyltransferase 9) | 3 | 4.09e7 | 5.69e7 | – | 1.85e7 | 2.54e7
Pgant9 (Polypeptide N-Acetylgalactosaminyltransferase 9) | 4 | 2.42e7 | 3.10e7 | – | 1.46e7 | 1.79e7
Pgant9 (Polypeptide N-Acetylgalactosaminyltransferase 9) | 5 | 4.88e7 | 5.82e7 | – | 1.97e7 | 2.61e7
Pgant9 (Polypeptide N-Acetylgalactosaminyltransferase 9) | 6 | 4.54e7 | 5.33e7 | – | 2.05e7 | 2.56e7
Pgant9 (Polypeptide N-Acetylgalactosaminyltransferase 9) | 7 | 3.79e7 | 3.20e7 | – | 2.34e7 | 1.56e7
Pgant9 (Polypeptide N-Acetylgalactosaminyltransferase 9) | 8 | 3.52e7 | 4.08e7 | – | 1.59e7 | 2.08e7

6 entries from above, showing only “calcium entry signal, replicate 2 (fluorescence units)”:
ND-24L (NADH dehydrogenase (ubiquinone) 24 kDa subunit-like) = 4.92e7
CG15256 #1 = 4.10e7
CG15256 #2 = 3.22e7
CG1172 #1 = 2.85e7
CG1172 #2 = 3.67e7
CG5808 = 2.76e7
